In PMC5352711:
These are yes or no findings as the source states them, for the method shown. In cells and extracts the contact can be indirect. Some entries that bind do so weakly or less than the wild type.

Chains of the proteins cited; added tags and fusions are not shown. Lines headed by an entry give the natural chain unless they say otherwise; changes in a name come on top.
UniProt Q8CFN5: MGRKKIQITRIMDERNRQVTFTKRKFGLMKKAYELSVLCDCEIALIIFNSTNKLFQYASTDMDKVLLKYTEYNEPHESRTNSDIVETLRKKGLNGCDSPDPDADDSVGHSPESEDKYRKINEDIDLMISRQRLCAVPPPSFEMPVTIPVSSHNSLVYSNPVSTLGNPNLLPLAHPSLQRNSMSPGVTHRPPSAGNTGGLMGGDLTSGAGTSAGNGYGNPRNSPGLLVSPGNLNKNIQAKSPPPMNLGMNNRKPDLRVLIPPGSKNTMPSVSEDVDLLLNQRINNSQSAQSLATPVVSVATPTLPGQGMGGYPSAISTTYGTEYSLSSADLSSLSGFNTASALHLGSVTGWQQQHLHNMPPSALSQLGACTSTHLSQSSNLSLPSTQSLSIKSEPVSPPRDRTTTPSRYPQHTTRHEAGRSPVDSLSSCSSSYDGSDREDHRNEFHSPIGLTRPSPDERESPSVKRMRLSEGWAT
UniProt P11275: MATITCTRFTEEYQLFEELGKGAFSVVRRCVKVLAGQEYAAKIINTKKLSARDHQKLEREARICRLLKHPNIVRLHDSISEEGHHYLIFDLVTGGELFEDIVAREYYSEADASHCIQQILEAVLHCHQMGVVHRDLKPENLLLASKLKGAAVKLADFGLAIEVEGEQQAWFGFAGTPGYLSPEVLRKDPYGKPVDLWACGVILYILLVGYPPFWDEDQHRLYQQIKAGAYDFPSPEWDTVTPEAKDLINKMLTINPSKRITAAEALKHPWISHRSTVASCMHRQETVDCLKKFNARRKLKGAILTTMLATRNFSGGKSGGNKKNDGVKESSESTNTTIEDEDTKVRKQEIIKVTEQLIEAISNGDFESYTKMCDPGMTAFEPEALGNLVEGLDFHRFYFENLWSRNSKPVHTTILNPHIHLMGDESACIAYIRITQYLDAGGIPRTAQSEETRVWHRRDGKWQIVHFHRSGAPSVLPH

How the values were obtained:
Mef2c-Myc = Mef2c-Myc (UniProt Q8CFN5); assay: co-IP; Myc-magnetic beads pull on Mef2c::Myc; DaCaMKII::GFP detected by immunoblot in the bound fraction; data not shown
[1] = target: DaCaMKII::eGFP (CaMKII-T286D C-terminal fused to eGFP) (rat) (UniProt P11275); assay: co-IP; GFP monoclonal antibody magnetic beads pull on DaCaMKII::eGFP; lysates of HEK293 cells co-transfected with Mef2c-Myc and DaCaMKII::eGFP at 4:3 ratio; 150 ug protein, 15 min at 4 C; 4 washes with 50 mM Tris-HCl pH 7.5, 150 mM NaCl, 1% NP-40; blot with anti-myc

| binding (Mef2c-Myc) | binding [1] | Substance |
| --- | --- | --- |
| binds |  | DaCaMKII::eGFP (CaMKII-T286D C-terminal fused to eGFP) (from UniProt P11275 1-478) (enzyme) |
|  | binds | Mef2c-Myc (from UniProt Q8CFN5 1-474) |
